Results are given in words; binding and its absence hold for the method and conditions named. In cells and extracts the contact can be indirect. A yes stands for co-enrichment or nearness to the bait. Other partners may have been found.
Legend:
[1] = molecular target: BirA2-Flag-GID4 fusion protein (human) (UniProt Q8IVV7); test: proximity labelling; BioID2: BirA2-Flag-tagged bait in Flp-In T-REx HeLa cells, tetracycline 1 μg/ml and biotin 50 μM for 24 h, with or without MG132 (5 μM); biotinylated proteins on streptavidin beads, mass spectrometry, SAINT against BirA2-Flag-EGFP, BFDR ≤ 0.01
ARMC8-BirA2-Flag (human) = ARMC8-BirA2-Flag (human) (UniProt Q8IUR7); test: as above

Protein sequences, listed by entry. Tags and fused reporters are not part of them. Lines headed by an entry give the natural chain unless they say otherwise; changes in a name come on top.
UniProt Q8IVV7: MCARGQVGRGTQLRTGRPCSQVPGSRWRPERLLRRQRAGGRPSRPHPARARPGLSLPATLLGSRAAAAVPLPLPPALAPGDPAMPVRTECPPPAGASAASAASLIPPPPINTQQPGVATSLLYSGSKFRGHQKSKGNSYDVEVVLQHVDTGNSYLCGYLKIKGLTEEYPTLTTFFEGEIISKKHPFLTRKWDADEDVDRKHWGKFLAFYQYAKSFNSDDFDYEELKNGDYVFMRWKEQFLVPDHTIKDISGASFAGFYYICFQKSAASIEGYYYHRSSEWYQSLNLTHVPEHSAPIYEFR
UniProt Q8IUR7: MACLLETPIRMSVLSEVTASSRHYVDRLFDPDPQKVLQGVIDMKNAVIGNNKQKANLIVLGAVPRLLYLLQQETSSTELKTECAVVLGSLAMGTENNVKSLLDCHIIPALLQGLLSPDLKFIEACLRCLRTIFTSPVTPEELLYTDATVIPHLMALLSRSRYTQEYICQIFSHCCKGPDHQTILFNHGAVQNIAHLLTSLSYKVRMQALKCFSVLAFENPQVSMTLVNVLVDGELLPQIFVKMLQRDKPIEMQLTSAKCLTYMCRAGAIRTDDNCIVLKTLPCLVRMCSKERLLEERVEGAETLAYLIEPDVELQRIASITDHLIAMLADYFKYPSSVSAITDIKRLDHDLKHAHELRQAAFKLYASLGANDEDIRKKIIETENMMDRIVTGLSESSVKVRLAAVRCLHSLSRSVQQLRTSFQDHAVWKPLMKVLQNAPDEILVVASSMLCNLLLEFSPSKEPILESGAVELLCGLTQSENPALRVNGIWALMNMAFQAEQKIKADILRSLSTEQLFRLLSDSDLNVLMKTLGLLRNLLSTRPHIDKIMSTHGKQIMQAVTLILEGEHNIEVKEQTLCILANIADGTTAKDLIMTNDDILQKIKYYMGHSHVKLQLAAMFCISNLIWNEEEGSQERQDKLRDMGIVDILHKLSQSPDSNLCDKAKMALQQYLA
UniProt O43464: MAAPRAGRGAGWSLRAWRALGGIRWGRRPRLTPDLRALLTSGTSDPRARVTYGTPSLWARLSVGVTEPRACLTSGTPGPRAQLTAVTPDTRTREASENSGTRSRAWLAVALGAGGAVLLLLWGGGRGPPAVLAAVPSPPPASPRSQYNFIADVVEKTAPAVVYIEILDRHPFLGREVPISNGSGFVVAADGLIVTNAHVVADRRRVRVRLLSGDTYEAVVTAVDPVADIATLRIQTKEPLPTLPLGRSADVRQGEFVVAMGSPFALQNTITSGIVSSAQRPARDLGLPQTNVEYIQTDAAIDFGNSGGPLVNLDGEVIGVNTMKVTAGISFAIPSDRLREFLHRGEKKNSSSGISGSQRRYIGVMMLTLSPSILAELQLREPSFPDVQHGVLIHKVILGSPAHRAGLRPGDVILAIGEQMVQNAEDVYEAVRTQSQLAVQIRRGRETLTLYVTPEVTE
UniProt Q96E35: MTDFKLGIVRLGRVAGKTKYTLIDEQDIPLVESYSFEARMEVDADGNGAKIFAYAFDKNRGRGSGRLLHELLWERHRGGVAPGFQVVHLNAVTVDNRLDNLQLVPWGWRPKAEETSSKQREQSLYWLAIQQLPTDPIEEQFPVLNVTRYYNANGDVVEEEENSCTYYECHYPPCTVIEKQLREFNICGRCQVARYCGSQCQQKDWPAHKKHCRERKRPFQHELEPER
UniProt Q9H2Y7: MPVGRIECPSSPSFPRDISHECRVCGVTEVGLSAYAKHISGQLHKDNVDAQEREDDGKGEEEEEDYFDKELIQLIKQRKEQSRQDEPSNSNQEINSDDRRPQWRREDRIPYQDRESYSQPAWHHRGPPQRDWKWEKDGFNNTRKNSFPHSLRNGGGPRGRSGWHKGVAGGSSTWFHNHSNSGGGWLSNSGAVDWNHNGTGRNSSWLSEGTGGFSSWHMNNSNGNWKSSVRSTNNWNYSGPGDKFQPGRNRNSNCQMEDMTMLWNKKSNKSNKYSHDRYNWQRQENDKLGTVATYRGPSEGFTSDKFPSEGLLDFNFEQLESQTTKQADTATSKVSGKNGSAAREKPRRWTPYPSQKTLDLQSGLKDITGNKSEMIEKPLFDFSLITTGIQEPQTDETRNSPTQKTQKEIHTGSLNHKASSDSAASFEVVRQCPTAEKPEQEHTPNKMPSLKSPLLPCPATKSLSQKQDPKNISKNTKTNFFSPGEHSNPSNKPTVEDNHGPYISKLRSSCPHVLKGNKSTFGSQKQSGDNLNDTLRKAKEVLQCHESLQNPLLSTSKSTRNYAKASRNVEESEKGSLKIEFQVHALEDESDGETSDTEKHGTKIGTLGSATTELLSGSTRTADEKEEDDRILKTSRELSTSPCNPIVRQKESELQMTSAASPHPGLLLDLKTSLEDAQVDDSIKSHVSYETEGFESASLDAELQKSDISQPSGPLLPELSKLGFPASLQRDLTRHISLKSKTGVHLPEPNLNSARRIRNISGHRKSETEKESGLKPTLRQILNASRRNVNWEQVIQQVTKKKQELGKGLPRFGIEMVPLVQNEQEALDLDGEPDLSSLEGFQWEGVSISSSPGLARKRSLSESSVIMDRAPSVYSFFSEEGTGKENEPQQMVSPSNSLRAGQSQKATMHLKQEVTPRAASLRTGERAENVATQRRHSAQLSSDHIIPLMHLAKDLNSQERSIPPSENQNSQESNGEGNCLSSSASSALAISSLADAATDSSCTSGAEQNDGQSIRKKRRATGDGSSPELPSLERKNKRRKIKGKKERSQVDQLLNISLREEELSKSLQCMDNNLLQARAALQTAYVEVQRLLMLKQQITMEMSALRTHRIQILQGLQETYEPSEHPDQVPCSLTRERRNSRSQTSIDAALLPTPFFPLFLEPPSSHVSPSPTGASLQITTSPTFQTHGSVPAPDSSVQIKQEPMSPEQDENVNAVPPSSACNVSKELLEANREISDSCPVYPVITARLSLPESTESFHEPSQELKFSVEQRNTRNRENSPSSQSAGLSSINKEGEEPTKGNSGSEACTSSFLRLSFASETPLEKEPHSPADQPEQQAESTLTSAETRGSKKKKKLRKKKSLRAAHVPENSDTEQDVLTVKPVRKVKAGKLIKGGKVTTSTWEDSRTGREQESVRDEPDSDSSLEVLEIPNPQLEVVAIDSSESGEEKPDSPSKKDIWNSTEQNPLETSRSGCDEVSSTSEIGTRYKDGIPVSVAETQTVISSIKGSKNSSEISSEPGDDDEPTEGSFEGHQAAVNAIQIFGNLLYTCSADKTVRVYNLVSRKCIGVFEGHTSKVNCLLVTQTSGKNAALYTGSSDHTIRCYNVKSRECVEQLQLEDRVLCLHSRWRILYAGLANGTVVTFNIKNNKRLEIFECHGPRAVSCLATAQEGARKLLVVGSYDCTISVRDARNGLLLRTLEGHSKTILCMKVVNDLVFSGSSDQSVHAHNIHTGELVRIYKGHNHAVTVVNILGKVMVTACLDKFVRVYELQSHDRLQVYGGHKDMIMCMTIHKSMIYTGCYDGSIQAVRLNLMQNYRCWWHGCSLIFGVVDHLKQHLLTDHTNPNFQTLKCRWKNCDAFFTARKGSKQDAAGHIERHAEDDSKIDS

binding [1]	binding (ARMC8-BirA2-Flag (human))	Substance
binds		HTRA2 (from UniProt O43464)
	binds	Zinc finger MYND-type containing 19 (ZMYND19) (from UniProt Q96E35 1-227)
binds		transcription factor ZNF106 (from UniProt Q9H2Y7 1-1883)

Reference: paper PMC11467045
